Results as given in PubChem BioAssay AID493014 (National Center for Advancing Translational Sciences (NCATS), 2011).
Some of the results follow. Shown are side measurements of this screen, not its main read-out; they come without a call. Compounds called inactive in the main read-out are mostly missing here. Potencies come from curve fits of mixed quality, noted in brackets.

Assay: qHTS Assay to Find Inhibitors of Chronic Active B-Cell Receptor Signaling
Settings: ABC-DLBCL IkBa-CBG/CBR reporter, luminescence ratio (green luciferase fused to IkBa over red control in TMD8 lymphoma cells), 4 h
How it was run: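 Concentration-response series (up to 46 uM) were applied to TMD8 dual-reporter cells for 4 h at 37C with doxycycline. Green/red ratio, after filter-overlap correction, defined %Activity; red signal alone was normalised to basal cells and zero luminescence.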

[1] = measured here: CBR red luminescence, cell number
[2] = measured here: IkBa-CBG green luminescence

## CN(C)S(=O)(=O)c1ccc(C(=O)NCc2nc3ccccc3s2)cc1
[1]
  AC50: 17.8 µM [rising, partial curve, poor fit]

## O=C(Nc1ccccc1)c1ccc2c(c1)OCO2
[1]
  AC50: 10.3 µM [falling, partial curve]

## COc1ccc(CNc2n[nH]c(NCc3ccc(OC)c(OC)c3)n2)cc1OC
[1]
  AC50: 23.1 µM [rising, single point]

## Cc1ccc2nc(N/C(=N/S(=O)(=O)c3ccc(F)cc3F)c3ccccc3)sc2c1
[1]
  AC50: 5.01 µM [falling, partial curve, poor fit]

## COc1ccc(C(=O)N/N=C/c2c(CO)cnc(C)c2O)cc1
[1]
  AC50: 14.1 µM [falling, single point]

## O=C(c1ccc(-n2cccc2)cc1)N1CCN(Cc2ccccc2)CC1
[1]
  AC50: 28.2 µM [falling, partial curve, poor fit]

## CCCC(=O)OCCNc1cc(SCc2ccco2)c2nonc2c1[N+](=O)[O-]
[2]
  AC50: 32.6 µM [falling, partial curve, poor fit]

## O=C(CSc1nnc(-c2ccc(O)cc2)o1)Nc1cccc(O)c1
[1]
  AC50: 7.94 µM [falling, partial curve]

## CC1(S(=O)(=O)O)CC(=O)c2ccccc2C1=O (stereo not drawn)
[1]
  AC50: 5.62 µM [falling, full curve]
[2]
  AC50: 35.5 µM [rising, partial curve, poor fit]

## Cc1ccc(/C=C/C(=O)Nc2cccc3ncccc23)o1
[1]
  AC50: 7.31 µM [falling, partial curve, poor fit]

## O=[N+]([O-])c1cccc2ccc(/C=C/c3cccc(Br)c3)nc12
[1]
  AC50: 2.06 µM [rising, full curve, poor fit]

## O=C(c1c(O)c2ccccc2oc1=O)C1CCC1
[1]
  AC50: 10 µM [falling, partial curve]

## Nc1nnnn1/N=C/c1ccco1
[1]
  AC50: 1.03 µM [falling, full curve, poor fit]
[2]
  AC50: 2.91 µM [rising, full curve, poor fit]

## Cc1cc(C)cc(C(=O)/C=C2\NC(=O)CS2)c1
[1]
  AC50: 17.8 µM [falling, partial curve]

## CCNC(=S)Nc1nc2c(cc1C(=O)OCC)CCCC2
[1]
  AC50: 13 µM [rising, partial curve, poor fit]

## O=C(O)c1cccc(NC(=O)C2C3C=CC(C3)C2C(=O)O)c1 (stereo not drawn)
[1]
  AC50: 14.1 µM [rising, single point]

## COc1ccc(C(=O)Nc2cnc(NC(=O)c3cccs3)cc2C)cc1
[1]
  AC50: 3.98 µM [falling, partial curve, poor fit]

## COc1ccc(OC)c(-c2csc(NC(=O)CSCC(=O)Nc3cc(C)on3)n2)c1
[1]
  AC50: 16.4 µM [falling, single point]

## Cn1cc(CNCc2cn(C)nc2-c2ccc(C3CCCCC3)cc2)cn1
[1]
  AC50: 35.5 µM [falling, single point]

## N/C(=N\OC(=O)c1ccc2c(c1)OCO2)c1cccnc1
[1]
  AC50: 20 µM [falling, single point]

## CC(C)CNC(=S)NNC(=O)c1ccc2c(c1)OCO2
[1]
  AC50: 14.6 µM [falling, single point]

## CCCCN(C(=O)c1ccc(S(=O)(=O)N2CCC(C)CC2)cc1)C1CCS(=O)(=O)C1 (stereo not drawn)
[1]
  AC50: 8.2 µM [falling, partial curve, poor fit]

## CNC(=S)N/N=C/c1c(C)nn(-c2ccccc2)c1Cl
[1]
  AC50: 0.326 µM [falling, full curve, poor fit]

## Cc1nnc(NC(=O)c2ccc3c(c2)C(=O)N(CCC(C)C)C3=O)s1
[1]
  AC50: 6.51 µM [falling, single point]

## CCOC(=O)C(NC(=O)N(C)C)(Nc1sc(C)c(CC)c1C#N)C(F)(F)F (stereo not drawn)
[1]
  AC50: 25.9 µM [rising, single point]
[2]
  AC50: 7.31 µM [falling, partial curve]

## O=C(C1CCN(S(=O)(=O)c2cccc3nsnc23)CC1)N1CCCc2ccccc21
[1]
  AC50: 11.2 µM [falling, partial curve]

## C[C@]12CC[C@H]3[C@@H](CCC4=CC(=O)CC[C@@]43C)[C@@H]1CC[C@@H]2C(=O)CO
[1]
  AC50: 0.00411 µM [rising, full curve, poor fit]

## NCCNC(=O)Cc1ccc(NC(=O)Cc2ccc(Nc3ncnc4c3ncn4[C@@H]3O[C@H](CO)[C@@H](O)[C@H]3O)cc2)cc1
[1]
  AC50: 0.164 µM [rising, full curve, poor fit]
[2]
  AC50: 1.16 µM [falling, full curve]

## Cc1ccc(OCCNCc2ccccc2)c(C)c1
[1]
  AC50: 3.55 µM [rising, partial curve, poor fit]

## CC1CCCCC1N(C)C1CCN(C(=O)CNC(=O)/C=C/c2cccc(Cl)c2)CC1 (stereo not drawn)
[1]
  AC50: 6.31 µM [falling, single point]

## O=C(N/N=C/c1cn(-c2ccccc2)nc1-c1cc2ccccc2o1)c1ccncc1
[1]
  AC50: 0.146 µM [rising, full curve]

## O=C(O)c1cc(-c2ccc3c(c2)OCO3)nc2ccc(Br)cc12
[1]
  AC50: 10 µM [falling, partial curve]

## COc1c(C)cccc1C(=O)NC(=S)Nc1cccc2nsnc12
[1]
  AC50: 8.91 µM [falling, partial curve, poor fit]

## COCCN(CC(=O)NCc1ccc(F)cc1)C(=O)CCC(=O)Nc1nccs1
[1]
  AC50: 3.26 µM [falling, full curve, poor fit]

## COc1ccc(N2CCN(C(=O)CNC(=O)c3cn(-c4ccccc4OC)c(=O)c4ccccc34)CC2)cc1
[1]
  AC50: 0.112 µM [falling, full curve, poor fit]

## CC(C)Sc1oc(-c2ccco2)nc1S(=O)(=O)c1ccc(F)cc1
[2]
  AC50: 23.1 µM [rising, partial curve, poor fit]

## N/C(=N\OC(=O)/C=C/c1ccccc1)c1ccccc1
[1]
  AC50: 10.3 µM [falling, partial curve, poor fit]

## O=C(NCc1cccc(C(F)(F)F)c1)N1CCN(C(=O)c2ccccc2)CC1
[1]
  AC50: 23.1 µM [rising, partial curve]

## Cn1cc(CN2CCC(CO)(CCCc3ccccc3)CC2)c(-c2ccccc2)n1
[1]
  AC50: 5.01 µM [falling, single point]

## O=C(Nc1cccnc1)c1coc(=O)c2ccccc12
[2]
  AC50: 20.6 µM [falling, single point]

## O=C(O)[C@H]1CCCN1S(=O)(=O)c1cccc2cccnc12
[1]
  AC50: 29.1 µM [rising, single point]

## Cc1ccccc1-n1c(-c2ccc3ccccc3n2)n[nH]c1=S
[1]
  AC50: 3.16 µM [falling, full curve]

## Cc1ccc(CNS(=O)(=O)c2c(C)[nH]c(=O)[nH]c2=O)cc1
[1]
  AC50: 0.1 µM [rising, full curve, poor fit]

## Cc1cccc(-c2noc(Cc3ccc(Cl)cc3)n2)c1
[1]
  AC50: 23.1 µM [rising, single point]

## COc1cc(C(c2c(C)[nH][nH]c2=O)c2c(C)[nH][nH]c2=O)ccc1OC(C)C
[1]
  AC50: 7.31 µM [falling, partial curve]

## CN(C)c1ccc(/C=c2\sc3n(c2=O)CCCN=3)cc1
[1]
  AC50: 2.31 µM [falling, full curve]

## CC(C)OC(=O)c1cc2c(ccn2C)n1CC(=O)N(Cc1ccccc1)c1ccc(F)cc1
[1]
  AC50: 16.4 µM [falling, partial curve, poor fit]

## CNC(=O)c1sc(-c2ccccc2)nc1C
[1]
  AC50: 11.6 µM [rising, partial curve, poor fit]

## O=C(Nc1nc2c(s1)C(=O)CCC2)c1ccccc1
[1]
  AC50: 3.98 µM [falling, full curve]

## O=C1NC(=Nc2ccc(O)cc2)S/C1=C\C=C\c1ccco1
[1]
  AC50: 35.5 µM [rising, single point]
[2]
  AC50: 7.08 µM [falling, partial curve]

## O=C1N/C(=C/c2ccc(N3CCOCC3)cc2)C(=O)N1Cc1ccc(F)cc1
[1]
  AC50: 28.2 µM [falling, single point]

## COc1ccc(S(=O)(=O)N2CCOC23CCN(C(=O)c2c(F)cccc2Cl)CC3)cc1
[1]
  AC50: 5.62 µM [rising, single point]

## Cc1ccc(NC(=O)c2sc3nc(C)cc(C)c3c2N)cc1
[1]
  AC50: 17.8 µM [falling, partial curve, poor fit]

## O=C(NCCN1CCCC1=O)C1CCC(=O)N(CCc2cccc(F)c2)C1 (stereo not drawn)
[1]
  AC50: 20 µM [falling, single point]

## O=[N+]([O-])c1ccc2nc(SCc3ccccc3Cl)sc2c1
[1]
  AC50: 10 µM [rising, single point]

## O=C(Nc1cccc(C(F)(F)F)c1)c1cccnn1
[1]
  AC50: 7.94 µM [rising, full curve, poor fit]

## Cc1onc(-c2ccccc2)c1C(=O)NC(=S)NNC(=O)c1cccnc1
[1]
  AC50: 29.1 µM [falling, partial curve, poor fit]

## O=C(Nc1cccc(F)c1)c1c(F)c(F)c(F)c(F)c1F
[1]
  AC50: 23.1 µM [falling, single point]

## Cc1ccc(OCc2nc(-c3ccccn3)no2)c(Br)c1
[1]
  AC50: 35.5 µM [falling, single point]

## CCN1C(=O)C(O)(CC(=O)/C=C/C=C/c2ccccc2)c2ccccc21 (stereo not drawn)
[1]
  AC50: 35.5 µM [falling, single point]

## NNC(=O)c1cc(-c2ccco2)[nH]n1
[1]
  AC50: 12.6 µM [falling, partial curve, poor fit]

## COc1ccccc1C(=O)NC(=O)COc1ccc(Cl)cc1Cl
[1]
  AC50: 8.2 µM [rising, partial curve, poor fit]

## COc1ccc(Cn2c(=O)n(-c3ccc(OC)cc3)c(=O)c3c2c2cc(OC)ccc2n3C)cc1
[1]
  AC50: 35.5 µM [rising, single point]
